Measured values from PubChem BioAssay AID504834 (National Center for Advancing Translational Sciences (NCATS), 2011).
Screen size: about 320,000 compounds; about 22,000 (6.9%) were called active. Inconclusive results, whose numbers are uncertain, are shown with a selection of clear calls. The call rests on the fitted dose curve; in most records, active means well fitted inhibition curve with a large enough effect; inconclusive means small, poorly fitted or top-dose-only effect, or another doubt; inactive means no such curve, though single readings can be large or run the other way. Potencies of inconclusive entries are doubtful fits and often do not repeat.
On the % scale 0 is the no-effect control and ±100 the full control effect; potency means the concentration at half of the fitted maximal effect.

Assay: Primary qHTS for delayed death inhibitors of the malarial parasite plastid, 96 hour incubation
Conditions: P. falciparum luciferase reporter growth; series mostly up to 28.7 µM; activity change, negative = inhibition: at the top concentration
Procedure, shortened: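 96 h incubation, 37 C, 5% CO2, of luciferase-reporter P. falciparum-infected RBCs (2% hematocrit, 0.05% parasitemia final) with test compounds; endpoint luminescence.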
In the case of `Cc1ccc(CNC(=O)Cn2c(=O)oc3ccccc32)o1`, the Potency is reported as inconclusive: 0.738 µM [inhibitor, full curve, poor fit]. With `Cc1ccc2cccc(OCC(=O)Nc3ccc(N4CCOCC4)cc3)c2n1` the “activity change, negative = inhibition” value was inactive: 16.6%. For `N#Cc1cccc(NC(=O)CCC2CCCC2)c1`, the “activity change, negative = inhibition” value was inactive: 10.9%. With `C#CCOCCOCCOCCNc1nc(N2CCN(C(=O)CCCCCCCCCCNC(=O)[C@H](CCCCN)n3cc(C)nn3)CC2)nc(N2CCN(C(=O)CCCCCCCCCCNC(=O)[C@@H]([C@H](C)O)n3cc(C)nn3)CC2)n1` the Potency was active: 1.17 µM. For `Cc1ccc(-n2ncc3c(=O)n(Cc4cccnc4)cnc32)cc1`, the Potency was inconclusive: 11.7 µM [inhibitor, partial curve, poor fit]. With `N#CC(c1cccc(Cl)c1)c1ccc2c(C(F)(F)F)cc(C(F)(F)F)nc2n1` (configuration not stated) the Potency was inconclusive: 0.657 µM [inhibitor, full curve, poor fit]. With `N/C(=N\OC(=O)COc1ccc(Br)cc1Cl)c1cccnc1` the “activity change, negative = inhibition” value was inactive: 0%. In the case of `CCCn1c2ccccc2c2cnn(CC(=O)NCCN(C)C)c(=O)c21`, the Potency is reported as inconclusive: 2.62 µM [inhibitor, full curve, poor fit]. In the case of `COc1ccc(CCN(C(=S)Nc2ccccc2)C2CC(=O)N(c3ccccc3)C2=O)cc1` (configuration not stated), the Potency is reported as inconclusive: 0.329 µM [inhibitor, full curve, poor fit]. For `O=C(NCCc1ccccc1)C1CCC(CNS(=O)(=O)c2cccs2)CC1` (configuration not stated), the Potency was inconclusive: 4.65 µM [inhibitor, partial curve, poor fit]. In the case of `CC1CCC(NC(=O)C(C)N2C(=O)C3CCCCC3C2=O)CC1` (configuration not stated), the “activity change, negative = inhibition” value is reported as inactive: 20.4%. With `c1ccc(-c2ccc(C3=Nn4c(nnc4-c4cccs4)SC3)cc2)cc1` the Potency was active: 13.1 µM. With `Cc1cccc(COc2ccccc2C(=O)N(C)CC(=O)Nc2cccc(F)c2)c1` the Potency was active: 4.15 µM. For `COC(=O)c1scc(S(=O)(=O)C(C)(C)C)c1-n1cccc1`, the Potency was inconclusive: 2.62 µM [inhibitor, full curve, poor fit]. For `CC(=O)N(/N=C1\Sc2ccccc2C1=O)c1cccc(C)c1`, the Potency was inconclusive: 16.5 µM [inhibitor, single point]. In the case of `Cc1ccc(N/C(CSC(N)=O)=N/S(=O)(=O)c2ccccc2)cc1`, the Potency is reported as active: 3.29 µM. For `N#Cc1nc(-c2ccccc2F)oc1NCc1ccccc1`, the Potency was inconclusive: 10.4 µM [inhibitor, single point]. In the case of `Cc1ccc(NC(=O)CCS(=O)(=O)c2cccc3nonc23)c(Cl)c1`, the Potency is reported as inconclusive: 14.7 µM [inhibitor, single point]. In the case of `O=C(CNC(=O)c1ccccc1)N/N=C/c1ccccc1Cl`, the Potency is reported as inconclusive: 0.0738 µM [inhibitor, full curve, poor fit]. For `CCOC(=O)/C=c1\s/c(=C(\C#N)C(=O)OCC)n(-c2ccccc2)c1=O`, the Potency was inconclusive: 10.4 µM [inhibitor, partial curve, poor fit]. In the case of `CCOC(=O)C1=C(C)NC(=O)NC1c1ccc(OCC(=O)N2CCCCC2)cc1` (configuration not stated), the “activity change, negative = inhibition” value is reported as inactive: 2.71%. In the case of `COc1ccc(N2C(=O)c3cc4ccccc4cc3C2=O)cc1`, the Potency is reported as active: 10.4 µM. With `COc1ccc(Cc2nc(-c3ccncc3)no2)cc1` the Potency was inconclusive: 10.4 µM [inhibitor, single point]. In the case of `CCOc1ccc(/C=N/N(C)c2ccccc2)cc1OC`, the “activity change, negative = inhibition” value is reported as inactive: -29.8%. With `CCCNS(=O)(=O)c1cccc(C(=O)NC2CCCc3ccccc32)c1` (configuration not stated) the “activity change, negative = inhibition” value was inactive: -20.1%. In the case of `CC(=C/C(=O)O)/C=C/c1ccco1`, the Potency is reported as inconclusive: 14.7 µM [inhibitor, partial curve, poor fit]. With `CS(=O)(=O)N1CCc2cc(C(=O)Nc3ccc(Br)cc3)ccc21` the Potency was inconclusive: 9.28 µM [inhibitor, partial curve]. For `N#CC1=C(N)Oc2n[nH]c(-c3ccccc3)c2C1c1ccsc1` (configuration not stated), the Potency was inconclusive: 9.28 µM [inhibitor, partial curve]. With `CC1=C(C)CC2(SC1)C(=O)N(c1ccccc1)N=C2N` (configuration not stated) the “activity change, negative = inhibition” value was inactive: 8.35%. With `COC(=O)c1[nH]c2ccc(F)cc2c1NC(=O)CCN1CCN(C(=O)c2ccco2)CC1` the Potency was inconclusive: 2.94 µM [inhibitor, partial curve, poor fit]. For `CC(Oc1ccc(F)cc1)C(=O)Nc1ccccc1N1CCCCC1` (configuration not stated), the Potency was active: 11.7 µM. In the case of `O=C(NNc1c2ccccc2nc2ccccc12)c1cccc(O)c1`, the Potency is reported as inconclusive: 4.15 µM [inhibitor, partial curve, poor fit]. With `O=C(CCc1nnc(Cc2cccc(C(F)(F)F)c2)o1)NCC(F)(F)F` the Potency was inconclusive: 1.17 µM [inhibitor, full curve, poor fit]. In the case of `O=C(NCc1ccc2c(c1)OCO2)C1CCN(c2ncccn2)CC1`, the Potency is reported as inconclusive: 18.5 µM [inhibitor, single point]. In the case of `Clc1ccc(-c2noc(CCCOc3ccccc3)n2)cc1`, the “activity change, negative = inhibition” value is reported as inactive: 0.0459%. In the case of `Cc1ccc(N(C(=O)C(F)(F)F)C(C(=O)NC2CCCCC2)c2ccncc2)cc1C` (configuration not stated), the Potency is reported as inconclusive: 18.5 µM [inhibitor, single point]. With `Cc1c(NC(=S)Nc2cccc(Cl)c2)c(=O)n(-c2ccccc2)n1C` the Potency was inconclusive: 6.57 µM [inhibitor, single point]. In the case of `O=C(Nc1ccc(S(=O)(=O)Nc2ncccn2)cc1)c1ccco1`, the Potency is reported as inconclusive: 18.5 µM [inhibitor, single point]. In the case of `COc1cc(/C=C/C(=O)OCC(=O)Nc2oc(C)c3c(C)n[nH]c(=O)c23)ccc1OC(F)F`, the Potency is reported as inconclusive: 13.1 µM [inhibitor, single point]. In the case of `CC12CCC(=O)N1c1ccccc1C(=O)N2c1ccccc1` (configuration not stated), the “activity change, negative = inhibition” value is reported as inactive: 29.1%. For `O=S(=O)(c1ccc(Br)s1)N1CCN(c2ccccc2)CC1`, the Potency was inconclusive: 2.62 µM [inhibitor, partial curve, poor fit]. For `CNC(=O)C(N)CSC(C)C1=C(C)c2cc3[n-]c(cc4nc(cc5[n-]c(cc1n2)c(C)c5CCC(=O)O)C(CCC(=O)O)=C4C)c(C)c3C(C)SCC(N)C(=O)NC.[Fe+2]` (configuration not stated), the Potency was inconclusive: 3.01 µM [inhibitor, partial curve, poor fit]. In the case of `O=C(O)c1ccc(OCc2cn3ccccc3n2)cc1`, the “activity change, negative = inhibition” value is reported as inactive: 122%. With `Cn1c(Cl)nc2ccccc21` the “activity change, negative = inhibition” value was inactive: 13.5%. In the case of `O=C(Nc1ccc(Cl)cc1[N+](=O)[O-])c1ccc2c(c1)OCCO2`, the Potency is reported as inconclusive: 18.5 µM [inhibitor, single point]. For `CN(Cc1ccccc1)C(=O)CCC1CCN(S(=O)(=O)N(C)C)CC1`, the Potency was inconclusive: 13.1 µM [inhibitor, single point]. For `O=C(CN1C(=O)NC(c2ccccc2)(c2ccccc2)C1=O)N1CCN(c2ccccc2F)CC1`, the Potency was inconclusive: 9.28 µM [inhibitor, partial curve]. With `COc1ccc(C2=Nn3c(nnc3-c3ccccn3)SC2)cc1` the Potency was inconclusive: 0.465 µM [inhibitor, partial curve, poor fit]. For `COc1ccc(NC(=O)c2cccnc2C(=O)O)c(OC)c1`, the “activity change, negative = inhibition” value was inactive: 57.8%. With `CC[C@@H]1OC(=O)[C@H](C)[C@H](O[C@@H]2C[C@](C)(OC)[C@H](O)[C@H](C)O2)[C@H](C)[C@H](O[C@@H]2O[C@@H](C)C[C@@H](N(C)C)[C@@H]2O)[C@](C)(O)C[C@H](C)C(=NOCOCCOC)[C@H](C)[C@H](O)[C@]1(C)O` the Potency was active: 1.61 µM. For `O=C(CC1C(=O)NCCN1Cc1cccc(F)c1)NCCCN1CCCC1=O` (configuration not stated), the Potency was inconclusive: 10.4 µM [inhibitor, single point]. For `COc1ccc(Cn2nnnc2C(c2cccs2)N2CCN(c3ccccc3)CC2)cc1` (configuration not stated), the activity change, negative = inhibition was inactive: 5.66% [at 5.75 µM]. For `O=C(CN(C(=O)c1ccccc1)N1C(=O)CCC1=O)c1cccs1`, the Potency was inconclusive: 0.37 µM [inhibitor, partial curve, poor fit]. For `CC(=O)N1CN2CN(C(C)=O)CC(C(=O)c3ccccc3)(C2)C1`, the Potency was inconclusive: 0.928 µM [inhibitor, partial curve, poor fit]. With `O=[N+]([O-])c1cc([N+](=O)[O-])c(Oc2cc(F)ccc2F)cc1NN1CCCCC1` the Potency was inconclusive: 13.1 µM [inhibitor, single point]. With `CN(Cc1ccccc1)C(=O)Cc1ccccc1` the “activity change, negative = inhibition” value was inactive: -22.7%. In the case of `CN1CCN(C(CNC(=O)C(=O)NC2CCCCC2)c2ccc(F)cc2)CC1` (configuration not stated), the “activity change, negative = inhibition” value is reported as inactive: 42.9%. In the case of `CCC1=NN(S(=O)(=O)c2ccc(C)cc2)C(O)(C(F)(F)F)C1` (configuration not stated), the “activity change, negative = inhibition” value is reported as inactive: 4.01%. For `COc1ccc(C(CNC(=O)c2ccc(-c3ccccc3Cl)o2)N2CCOCC2)cc1` (configuration not stated), the Potency was inconclusive: 14.7 µM [inhibitor, single point]. In the case of `Cc1nn(-c2ccccc2)c(Cl)c1C1C(C#N)=C(N)Oc2c1c(=O)oc1ccccc21` (configuration not stated), the Potency is reported as inconclusive: 2.08 µM [inhibitor, full curve, poor fit]. In the case of `Cc1ccc(Nc2ncnc3c2cnn3C)cc1`, the Potency is reported as inconclusive: 11.7 µM [inhibitor, partial curve]. In the case of `COc1cccc(NC(=O)CN(C)C(=O)c2ccc(-c3ccc(Cl)cc3)o2)c1`, the Potency is reported as active: 5.86 µM. For `CCCn1c(NC(=O)c2ccc(C)cc2)nc2ccccc21`, the Potency was inconclusive: 11.7 µM [inhibitor, partial curve, poor fit]. For `O=C(CSc1ncn[nH]1)OCN1C(=O)c2ccccc2C1=O`, the Potency was inconclusive: 16.5 µM [inhibitor, single point]. For `O=C(NCCC1=CCCCC1)c1ccc(=O)oc1`, the Potency was inconclusive: 0.037 µM [inhibitor, full curve, poor fit]. With `CCC(C)Nc1nc(CN2CCOCC2)nc2sc3c(c12)CCC3` (configuration not stated) the Potency was active: 9.28 µM. For `CCN(CC)S(=O)(=O)c1cc(NC(=O)C(C)N2CCN(Cc3ccc4c(c3)OCO4)CC2)ccc1C` (configuration not stated), the Potency was inconclusive: 14.7 µM [inhibitor, partial curve, poor fit].
